{
  "source": "paper PMC7419483",
  "about": "“Phenolic metabolism in the hornwort Anthoceros agrestis: 4-coumarate CoA ligase and 4-hydroxybenzoate CoA ligase” (Plant Cell Reports, 2020)",
  "proteins": {"B1": {"name": "Aa4CL_2 (Anthoceros agrestis) (protein)", "chain": "MPAEMEAGEHIFRSNLPDIDIPFTLNLAHYSLQNAHQYGDKPCLIDGPTGKTYSYSEVEVVSRRVAAGLVALGVGKGEIVCLLLPNTCEFALIFLGVALRGAVVTTANPFYTAGELANQIKAAGAKIIVTQSAWAGKVAGLGAKVLTTDAPPEGCESAGLLLEADESKFTPVDVDPESVVCLPYSSGTTGLPKGVMLTHKSLISSVAQQVDGDCPHLHLTTDDVMLCLLPMFHIYSLNSVMLCGLRAGAALLIMQKFEIESLLRLVEKYKITVAPVVPPIVLAISKSPIVEKYDLSSITRVMSGAAPLGKELEDALRLKLPQATVGQGYGMTEAGPVLAMSLAFSKEPKQMKSGSVGMVMRNAELKVVDPESGVSLPVGEAGEICIRGPQIMKGYFNNPEATANTIDKHGWLHTGDIGVVDSDGEIFIVDRVKEIIKFKGFQVPPAELEALLLAHPDVSDAAVVPKKDEAAGEVPVAFVVRKEGSEVTEQALKEYVAKEVVFYKKIHHVQFIDVVPKSASGKILRKELRSRV", "notes": "N-terminal 6xHis tag (pRSET C) kept, E. coli SoluBL21, Ni-NTA purified"}},
  "key": {"[1]": {"substrate": "Nc1ncnc2c1ncn2[C@@H]1O[C@H](COP(=O)(O)OP(=O)(O)OP(=O)(O)O)[C@@H](O)[C@H]1O", "assay": "purified protein", "conditions": "pH 7.0 potassium phosphate, 40 °C, MgCl2, hydroxycinnamic acid co-substrate not stated"}, "[2]": {"substrate": "O=C(O)/C=C/c1ccc(O)c(O)c1", "assay": "purified protein", "conditions": "pH 7.0 potassium phosphate, 40 °C, standard assay 2.5 mM ATP, 2.5 mM MgCl2, 500 µM CoA, no DTT"}},
  "data": [
    {"protein": "B1", "values": [
      {"measurement": "Km", "setting": "[1]", "result": "151.1 ± 25.3", "unit": "µM"},
      {"measurement": "Vmax", "setting": "[1]", "result": 1.87, "unit": "µmol/min/mg"},
      {"measurement": "kcat", "setting": "[1]", "result": 1.9, "unit": "s⁻¹"},
      {"measurement": "kcat/Km", "setting": "[1]", "result": 12700, "unit": "M⁻¹ s⁻¹"},
      {"measurement": "Km", "setting": "[2]", "result": "20.5 ± 4.6", "unit": "µM"},
      {"measurement": "Vmax", "setting": "[2]", "result": 1.94, "unit": "µmol/min/mg"},
      {"measurement": "kcat", "setting": "[2]", "result": 2, "unit": "s⁻¹"},
      {"measurement": "kcat/Km", "setting": "[2]", "result": 97400, "unit": "M⁻¹ s⁻¹"}
    ]}
  ]
}
